Data published in patent US20240254209A1.
No constants are given. Whether binding was seen depends on the method and setting. Binding can be weak; no strength is given.

B1: human IgE mAb 3C3 (antibody, V domains shown)
VH: QLQLQESGPGLVKPSETLSLTCSISGASINSDDYYWGWIRQAPGEALEWIASIDASGTTFYNPSLRSRVTISVDTSTNQISLRLNSVTAADTAIYYCARRKTYYDFLTDYYNWYFDVWGRGTLVTVSS
VL: QSALTQPRSVSGSPGQSVTFSCTGINSDIRDYDYVSWYQQHPGEAPKLIIYDVTKRASGVPSRFSGSKSGNTASLTISGLQAEDEADYYCCSYSVTYSFEVFGTGTQVSVL
B2: human IgE mAb 3B7 (antibody, V domains shown)
VH: QVQLVQSGSELKKPGASMKVSCKASGYTFTNYAMNWVRQAPGQGLEWMGWINTNTGKPTYAQGFTGRFVFSLDTSVSMAYLQISSLEAGDTAVYFCARGESLAALGSFAYWGQGTLVTVSS
VL: DIQMTQSPSSLSASVGDRVTITCRASQSINSYLAWYQQKPGKAPNLLIYAASNLQSGVPSRFSGSGSGTDFTLTISSLQPEDFATYYCQQSSSTFWTFGQGTKVEIK

Legend:
[1] = molecular target: peanut allergen Ara h 3 (peanut (Arachis hypogaea)); assay: told in the legend of FIG. 6
[2] = molecular target: peanut allergen Ara h 3 (peanut (Arachis hypogaea)); assay: allergen specificity as listed in Table D
[3] = molecular target: peanut allergen Ara h 3 (peanut (Arachis hypogaea)); assay: Phadia ImmunoCAP and/or ELISA and Western blot
[4] = molecular target: peanut allergen Ara h 7 (peanut (Arachis hypogaea)); assay: allergen specificity as listed in Table D
[5] = molecular target: peanut allergen Ara h 7 (peanut (Arachis hypogaea)); assay: Phadia ImmunoCAP and/or ELISA and Western blot

| Binder | binding [1] | binding [2] | binding [3] | binding [4] | binding [5] |
| --- | --- | --- | --- | --- | --- |
| B1 | binds | binds | binds |  |  |
| B2 |  |  |  | binds | binds |
